PubChem BioAssay AID1508597, Cure First, 2020
Assay: 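Knock-downs altering ovarian cancer cell survival with or without PARP inhibitor rucaparib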 (primary screen). System: human ovarian carcinoma lines grown from tumours: OCI-P5x (papillary serous) and OCI-C5x (clear cell). Reagent: siRNA pool against human genes, 1.25 pmol siRNA per well. Timing: 72 h or 96 h, depending on the cell culture. Challenge: rucaparib 20 µM (about IC30) or vehicle, present until read-out. Rucaparib or vehicle: Vehicle. Cell line: OCI-C5x (clear cell). Read-out: 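Luminescent ATP-based viability assay read 72 or 96 h after transfection, depending on culture, given as normalised percent viability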. Direction: viability, normalised: higher = more viable cells remaining. Hit rule: 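a well counts as a hit if its normalised viability is under 80 percent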. Meaning of the calls: active = viability under 80%; inactive = viability 80% or more.
This is a random part of the about 2,100 reagents, in one setting of the screen. 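Calls flag viability under 80% in either arm, not effects specific to rucaparib; the reference for percent is not stated.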 Unmarked entries are inactive. The record does not give: the 100% reference.

gene	technical replicate	viability, normalised (%)
MED26	1	24.2 (active)
MED26	2	25.6 (active)
MED26	3	37.7 (active)
TEK	1	45.7 (active)
TEK	2	57.9 (active)
TEK	3	52.7 (active)
RAF1	1	54.6 (active)
RAF1	2	69.7 (active)
RAF1	3	54.3 (active)
MIP	1	60 (active)
MIP	2	45.8 (active)
MIP	3	31.1 (active)
POLD2	1	38.7 (active)
POLD2	2	48.1 (active)
POLD2	3	34.7 (active)
RPS19BP1	1	60.1 (active)
RPS19BP1	2	46.8 (active)
RPS19BP1	3	41.9 (active)
TEC	1	62 (active)
TEC	2	54.1 (active)
TEC	3	56.3 (active)
DLG5	1	48.5 (active)
DLG5	2	33.3 (active)
DLG5	3	32.1 (active)

Not a retest: entries from further up.
gene	technical replicate	viability, normalised (%)
RPS19BP1	3	41.9 (active)
TEC	1	62 (active)
TEC	2	54.1 (active)
